Data published in patent publication US8394848B2, “Compounds that modulate intracellular calcium” (Calcimedica, Inc., priority 2008, dated 2013).
Some results were stated once for a whole list of compounds, not compound by compound. At least one structure is not confirmed: it was looked up by name or label, or the drawing left a doubt.

Test system: JR251 or RBL cells
Experiment: Store-operated calcium entry, either JR251 or RBL cells, or both
Type: cell-based
Procedure: The day prior to performing the assay, RBL-2H3 cells are plated in 50 μL of complete medium in a 384 well plate. Cells are grown at 37° C./6% CO2 overnight and grow to 50-60% confluence by the next day. On the assay day, 1.5 μM Fluo-4-AM dye (Invitrogen) in complete medium is added and incubated for 1 hour at RT. Cells are washed twice in Ca^2+-free HBSS buffer and 35 μL Ca^2+-free HBSS buffer is added to each well. 10 μL of a test compound prepared in a Ca^2+-free HBSS solution at 4.5× of the desired concentration is added to a well and incubated for 5 minutes at RT. 10 μL of thapsigargin prepared in a Ca^2+-free HBSS solution at 5.5× of the desired concentration (5.5 uM) is added to each well and incubated for an additional 25 minutes. The initial baseline fluorescence signal is measured with a FLIPR^384 (Molecular Devices) plate reader. 5 μL of 12× calcium in HBSS (12 mM) is added and changes in cellular fluorescence are measured with the FLIPR^384 plate reader. In each well, the change in the fluorescent signal as a function of time due to calcium entry into the cell is determined by calculating the difference between the fluorescent signal measured 7 seconds after calcium addition and the initial baseline fluorescence signal at time zero (t=0). This parameter is designated Upslope. The IC50 value is calculated as the concentration at which 50% of the Upslope is inhibited.

Row | SMILES | IC50 [µM]
1 | O=C(O)c1c(-c2ccc(Br)cc2)csc1NC(=O)C12CC3CC(CC(C3)C1)C2 | < 10
2 | Cc1ccsc1C(=O)Nc1scc(-c2ccc(Br)cc2)c1C(N)=O | < 10
